Laboratory results taken from paper PMC9627217.
No constants are given. Whether binding was seen depends on the method and setting. In cells and extracts the contact can be indirect. Some results given as binding are weak or reduced against the parent protein; the word gives no strength.

The chains behind the UniProt entries cited, without tags or fusion partners. Residues count along the entry.
UniProt P04150: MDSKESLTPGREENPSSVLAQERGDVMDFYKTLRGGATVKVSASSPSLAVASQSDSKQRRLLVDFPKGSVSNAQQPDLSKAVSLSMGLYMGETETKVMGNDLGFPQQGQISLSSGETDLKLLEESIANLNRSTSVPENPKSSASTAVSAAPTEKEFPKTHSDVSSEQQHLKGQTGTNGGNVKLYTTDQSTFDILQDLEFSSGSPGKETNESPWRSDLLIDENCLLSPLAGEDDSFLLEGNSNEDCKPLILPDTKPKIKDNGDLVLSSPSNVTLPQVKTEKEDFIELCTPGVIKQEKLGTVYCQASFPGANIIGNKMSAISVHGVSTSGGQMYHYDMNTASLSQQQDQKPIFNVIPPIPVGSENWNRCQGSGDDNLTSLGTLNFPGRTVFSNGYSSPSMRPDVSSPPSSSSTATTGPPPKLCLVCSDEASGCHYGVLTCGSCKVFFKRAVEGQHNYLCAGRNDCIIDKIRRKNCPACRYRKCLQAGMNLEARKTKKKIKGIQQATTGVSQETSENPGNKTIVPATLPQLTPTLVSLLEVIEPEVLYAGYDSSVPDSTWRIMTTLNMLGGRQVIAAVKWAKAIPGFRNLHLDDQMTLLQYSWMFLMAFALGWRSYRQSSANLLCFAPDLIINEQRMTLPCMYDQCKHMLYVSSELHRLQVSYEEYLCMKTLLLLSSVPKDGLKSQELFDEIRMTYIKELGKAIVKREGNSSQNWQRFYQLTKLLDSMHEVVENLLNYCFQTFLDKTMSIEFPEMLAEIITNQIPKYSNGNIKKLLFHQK
UniProt P08069, residues 31-1367: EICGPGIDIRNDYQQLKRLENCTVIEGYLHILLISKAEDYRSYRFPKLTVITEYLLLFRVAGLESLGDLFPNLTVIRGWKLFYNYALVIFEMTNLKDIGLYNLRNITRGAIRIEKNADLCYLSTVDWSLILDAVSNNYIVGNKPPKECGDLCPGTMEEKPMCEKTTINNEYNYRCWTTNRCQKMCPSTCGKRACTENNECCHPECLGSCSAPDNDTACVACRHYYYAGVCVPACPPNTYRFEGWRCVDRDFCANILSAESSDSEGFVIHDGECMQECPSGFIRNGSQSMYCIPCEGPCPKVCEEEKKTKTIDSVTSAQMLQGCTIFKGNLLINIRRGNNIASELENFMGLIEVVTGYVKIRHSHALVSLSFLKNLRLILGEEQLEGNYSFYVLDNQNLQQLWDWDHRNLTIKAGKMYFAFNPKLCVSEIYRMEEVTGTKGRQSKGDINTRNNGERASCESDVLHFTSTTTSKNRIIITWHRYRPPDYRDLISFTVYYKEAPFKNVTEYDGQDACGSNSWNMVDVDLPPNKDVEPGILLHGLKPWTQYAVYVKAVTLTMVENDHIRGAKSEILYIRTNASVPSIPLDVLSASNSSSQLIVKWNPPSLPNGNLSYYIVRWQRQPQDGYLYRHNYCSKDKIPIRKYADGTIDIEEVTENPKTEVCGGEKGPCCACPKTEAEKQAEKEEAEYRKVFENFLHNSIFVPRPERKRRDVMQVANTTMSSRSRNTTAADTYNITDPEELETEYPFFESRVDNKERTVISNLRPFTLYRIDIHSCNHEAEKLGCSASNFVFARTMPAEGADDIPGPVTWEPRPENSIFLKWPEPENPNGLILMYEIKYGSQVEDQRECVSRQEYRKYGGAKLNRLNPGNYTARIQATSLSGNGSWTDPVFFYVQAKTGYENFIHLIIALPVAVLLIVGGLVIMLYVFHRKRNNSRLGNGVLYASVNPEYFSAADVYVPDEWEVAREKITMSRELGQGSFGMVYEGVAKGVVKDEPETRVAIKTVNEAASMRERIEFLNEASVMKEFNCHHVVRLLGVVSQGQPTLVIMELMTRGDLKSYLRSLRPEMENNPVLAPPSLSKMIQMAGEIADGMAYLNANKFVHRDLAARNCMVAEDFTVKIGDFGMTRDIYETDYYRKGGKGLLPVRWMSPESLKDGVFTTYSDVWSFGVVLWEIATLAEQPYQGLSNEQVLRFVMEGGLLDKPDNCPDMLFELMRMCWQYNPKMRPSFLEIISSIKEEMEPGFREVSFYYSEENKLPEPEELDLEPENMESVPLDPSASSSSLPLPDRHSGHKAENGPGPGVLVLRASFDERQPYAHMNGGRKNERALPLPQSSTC

Biological target: glucocorticoid receptor (human (endogenous in KGN)) (UniProt P04150)
Test: co-IP; KGN cells treated with 0.1 uM or 1 uM CORT for 48 or 72 h, lysed in RIPA buffer; GR antibody (1 ug) overnight at 4 C, protein A/G magnetic beads, five washes; Western blot for IGF1R

insulin-like growth factor 1 receptor (from UniProt P08069 31-1367)
binding: binds
